Measurements: the supplement of paper PMC12889115
The other results are listed elsewhere or left out. Values are raw readings; no control value is given beside them.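 Primary screen: polymyxin B was added at a level permeabilizing Salmonella outer membranes while sparing inner membranes. DMSO wells, both with and without polymyxin B, established maximum growth. Plate-to-plate variation meant each plate was ranked on its own, and the lowest-OD600 compounds were selected as hits.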

Test system: Salmonella enterica serovar Typhimurium SL1344
Test: bacterial growth OD600 after 18 h with compound and polymyxin B; higher = more bacterial growth (less inhibition)
Settings: 50 µM, Mueller-Hinton broth

| Compound | bacterial growth OD600 (polymyxin B 1 µg/mL) | bacterial growth OD600 (polymyxin B 0.75 µg/mL) |
| --- | --- | --- |
| COc1cccc(-c2cc(CC3(O)CCN(Cc4cccc5c4OCO5)CC3)on2)c1 | 0.922 | – |
| COc1ccc(-c2nc(CN(C)Cc3nonc3C)c(C)o2)c2ccccc12 | 0.844 | – |
| CC(C)CCNC(=O)C1CCCN(C2CCN(CCc3ccccc3)CC2)C1 (stereo unspecified) | 0.925 | – |
| CC(C)(O)C#Cc1ccc(CN2CCCC(CNC(=O)c3cccnc3)C2)s1 (stereo unspecified) | 0.878 | – |
| CCN(Cc1nccn1C)C(=O)c1ccc(NCC2CCCOC2)nc1 (stereo unspecified) | 0.898 | – |
| COc1ccccc1C1CN(Cc2cc(OC)c(O)c(OC)c2)Cc2ccccc2O1 (stereo unspecified) | – | 0.607 |
| CC(C)CN1CCC(C2CCN(C(=O)c3ccnc(N)c3)C2)CC1 (stereo unspecified) | – | 0.848 |
| C=CCC(O)(CC=C)C(C)NC(=O)CCC1(Cc2ccc3ccccc3c2)CCC(=O)N1 (stereo unspecified) | – | 0.787 |
| CCOC(=O)C1(Cc2ccccc2)CCN(Cc2ccccc2OC)CC1 | 0.912 | – |
| CCOC(=O)N1CCC(NC(=O)C2CC23CCN(C(=O)c2ccc(-c4ccccc4)cc2)CC3)CC1 (stereo unspecified) | – | 0.018 |
| CC1=C(C(=O)N2CCC3(CCCN(Cc4ccc(F)c(F)c4)C3=O)C2)OCCO1 (stereo unspecified) | 0.972 | – |
| Cc1cc(C(=O)N2CCCC(N3CCN(c4cccc(Cl)c4)CC3)C2)nn1C (stereo unspecified) | 0.862 | – |
| CC(=O)N1CCC(C(=O)NC2CC(C)(C)Cc3c2cnn3-c2ccc(F)cc2)CC1 (stereo unspecified) | 0.905 | – |
| CC1(CCC(=O)N2CCC(C3CCN(Cc4cccc(F)c4F)CC3)C2)CC1 (stereo unspecified) | – | 0.784 |
| Cc1ccsc1C(=O)NCCN1Cc2ccccc2OC(c2ccccc2F)C1 (stereo unspecified) | – | 0.075 |
| O=C1CCC(CCC(=O)N2CCCC(C(=O)c3cccnc3)C2)(Cc2ccc(Cl)cc2)N1 (stereo unspecified) | – | 0.896 |

2 of the compounds above, comma-delimited.
Compound,bacterial growth OD600 (polymyxin B 1 µg/mL),bacterial growth OD600 (polymyxin B 0.75 µg/mL)
CC(C)CN1CCC(C2CCN(C(=O)c3ccnc(N)c3)C2)CC1 (stereo unspecified),–,0.848
C=CCC(O)(CC=C)C(C)NC(=O)CCC1(Cc2ccc3ccccc3c2)CCC(=O)N1 (stereo unspecified),–,0.787

Later entries

| Compound | bacterial growth OD600 (polymyxin B 1 µg/mL) | bacterial growth OD600 (polymyxin B 0.75 µg/mL) |
| --- | --- | --- |
| O=C(c1ccc(NCC2CC2)nc1)N1CCCN(c2ncccn2)CC1 | – | 0.977 |
| C=CCCC(=O)NC1CC(=O)N(CCc2cccc(Cl)c2)C1 (stereo unspecified) | 1.1 | – |
| COc1cc(CN2CCN(Cc3cnn(C(C)C)c3)CC2CCO)cc(OC)c1 (stereo unspecified) | 1.01 | – |
| COc1ccc(CN(Cc2ccncc2)C(=O)c2ccc3[nH]c(C)c(C)c3c2)cc1OCC1CCCCO1 (stereo unspecified) | – | 0.821 |
| Cc1nc2ccccc2n1Cc1cc(C(=O)N2C[C@@H](C)O[C@@H](C)C2)n[nH]1 | 0.871 | – |
| Cc1cc(-c2nnc(CCC(=O)N3CCN(C4CCc5ccccc5C4)CC3)o2)no1 (stereo unspecified) | 0.908 | – |
| O=C(NCCc1ccco1)c1cc(Cn2ccc3ccccc32)[nH]n1 | – | 0.795 |
| O=C(C1CCC1)N1CCCC(CCc2cccc(F)c2)C1 (stereo unspecified) | – | 0.434 |
| CN1CCN(C(=O)c2coc(COc3cccc(F)c3F)n2)CC1 | 0.952 | – |
| Cc1ncsc1CCC(=O)N1CCC2(CCCN(C)C2=O)C1 (stereo unspecified) | 0.87 | – |
| CCOCc1cc(CN2CCC(n3nccc3NC(=O)C3CC3)CC2)ccc1OC | 0.924 | – |
| COC(=O)[C@@H]1CCCN1C(=O)Cc1ccc(N2CCC(NCc3cnc4ccccn34)CC2)cc1 | – | 0.866 |
| Cc1ccc2c(C)c(C(=O)N(C)Cc3nonc3C)oc2c1C | 0.701 | – |
| COc1ccc2cc(CNCCc3cccc(Cl)c3)c(N3CCCC(CO)C3)nc2c1 (stereo unspecified) | – | 0.737 |
| Cc1nonc1CN(C)Cc1cn(Cc2ccccc2)nc1-c1ccc2c(c1)OCO2 | 0.012 | – |
